The source of these data is paper doi:10.1101/2020.08.13.249722.

Results are given in words; binding and its absence hold for the method and conditions named. Binding calls can cover weak binding; strength is not graded here.

The target of assay [1] is T1, …-Toyopearl.
T1 sequence (peptide, C-terminus linked to Toyopearl resin): MDGNLSGIMPVKGSG
In words: equilibrium adsorption on peptide resin.

Assay [2] addresses T2, …-Toyopearl.
T2 sequence (peptide, C-terminus linked to Toyopearl resin): MYRGDPETCVDKGSG
In words: equilibrium adsorption on peptide resin. The source holds these as a separate data set.

In assay [3] the target is T3, cyclo[M-AFRLC-K]-Toyopearl.
T3 sequence (peptide, cyclo[M-AFRLC-K], cyclised between M and K; C-terminus linked to Toyopearl resin): MAFRLCKGSG
Put plainly: bind-and-elute on peptide resin.

The target of assay [4] is T4, …-Toyopearl (PTCH peptide, positive control).
T4 sequence (peptide, linked to Toyopearl resin): RYSPPPPYSSHS
In words: equilibrium adsorption isotherm on peptide resin.

Consider “tandem WW domain of Yes-Associated Protein 1 (WW-YAP), soluble recombinant human protein (domain or fragment)”, for which the binding entry in the assay with …-Toyopearl [1] is reported as “binds weakly”; with …-Toyopearl [2], “binds weakly”; in assay [3] it was “binds”; in assay [4], “binds”.
